This note sets out measurements from patent US10583387B2, “Guanidine compounds for carbon dioxide capture” (UT-Battelle, LLC, priority 2017, dated 2020).

Several values for one entry are separate records, joined by “and”; a condition that tells them apart may be missing. Equal values may be shown once.

A short description of data set [1]: Sorbent regeneration by boiling aqueous solutions under reflux. The conditions noted are these: for total CO2 swing capacity: 4 hours of refluxing; for total CO2 removed: one hour of refluxing.
A short description of data set [2]: Direct air capture of CO2 with aqueous amino acid sorbents in an air humidifier. Conditions: for average CO2 loading: after 24 hours; for Carbamate / Total CO2: after 24 hours absorption, average of three runs.
Data set [3] is described as follows: Sorbent regeneration by carbonate crystallization with PyBIG. Conditions: 24 hours absorption, 24 hours regeneration with PyBIG, three runs.
Data set [4] is described as follows: CO2 release and PyBIG regeneration by solar oven heating. The data set is classed as physicochemical. On the procedure:
The CO2 release from the PyBIGH2(CO3)(H2O)4 crystals was conducted by solar heating with a solar oven. The oven consists of a vacuum-insulated borosilicate tube placed in the focal point of two adjustable parabolic reflectors. The temperature inside the tube was monitored with a thermocouple. The PyBIGH2(CO3)(H2O)4 samples 36.4-45.0 mg, 0.095-0.118 mmol) were loaded in 1 mL glass vials, which were placed inside the oven tube. The solar oven was then placed in the full sun and oriented to capture the maximum amount of sunlight. The temperature was ramped to the targeted values of 120° C., 130° C., 140° C., 150° C., or 160° C. as fast as possible (typically within 3 to 10 minutes), then held within ±2° C. by intermittently moving the oven out of the sun, or/and closing the reflectors. The samples were subsequently removed from the tube, allowed to cool to room temperature, and weighed to determine their mass loss. The resulting yellow solids were analyzed by FTIR to confirm the disappearance of the carbonate and water peaks. The solar regeneration experiments were repeated three times at each temperature, and the average values and standard deviations calculated.
However, considering that this transformation is highly endothermic, the possibility of using concentrated solar power to render the process more energy sustainable was explored. For the initial small-scale proof of concept, a solar oven was used to heat solid PyBIGH2(CO3)(H2O)4 samples (˜38 mg, 0.1 mmol) at five different temperatures ranging between 120 and 160° C. FTIR analyses corroborated the release of CO2, most evidently noticeable by the disappearance of the strong peak at 1361 cm^−1 corresponding to the stretching mode of the carbonate anion.

Take `CNCC(=O)O` [sarcosine]: in data set [1], the “total CO2 swing capacity” value is on record as 0.45 mol/mol and the “total CO2 removed” value is reported as 0.30 mol/mol. Also, in data set [2], the “average CO2 loading” value stood at 0.69±0.05 mol/mol, the Carbamate amounted to 0.15 ± 0.02 M and the “Total CO2” value is 0.69 ± 0.05 M. Further, in data set [2] (listed as Sarcosine), the Carbamate was determined as 0.15 ± 0.02 M. Further, the average swing capacity in data set [3] turned out to be 0.31±0.05 mol/mol.

With `NCC(=O)O` [glycine], in data set [1], the “total CO2 swing capacity” value stood at 0.47 mol/mol and the “total CO2 removed” value is reported as 0.31 mol/mol. Moreover, in data set [2], the “average CO2 loading” value was found to be 0.77±0.04 mol/mol, the Carbamate was determined as 0.22 ± 0.06 M and the “Total CO2” value is given as 0.77 ± 0.04 M. The Carbamate in data set [2] (listed as Glycine) is 0.22 ± 0.06 M. The molecule also yielded an average swing capacity in data set [3] of 0.28±0.06 mol/mol.

As for `N=C(N)N/N=C/c1cccc(/C=N/NC(=N)N)n1` [PyBIG], the Regeneration yield was 92% and 92 ± 2% in data set [4] (120 ° C., 30 min); 92 ± 2% in data set [4] (130 ° C., 15 min); 95 ± 2% in data set [4] (140 ° C., 10 min); 93 ± 2% in data set [4] (150 ° C., 5 min); 96 ± 1% in data set [4] (160 ° C., 2 min); 92-96% in data set [4] (concentrated solar power, 120-160° C.).

In the case of `O=C([O-])[O-].[K+].[K+]` [K2CO3, reference compound], in data set [4] (120 ° C., 30 min), the Regeneration yield came out at 15%.
